Results deposited as PubChem BioAssay AID686937 (Drosophila RNAi Screening Center, 2013).

Assay: 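Knock-downs that reduce output of a secreted reporter enzyme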 (primary screen)
Cells: Drosophila S2 cells expressing secreted horseradish peroxidase
Reagent: long dsRNA against Drosophila genes
Timing: about 5.5 days (5 days dsRNA, then 12 h reporter induction)
Treatment: reporter expression induced after 5 days of dsRNA, read 12 h later; inducer not stated
Detection: 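Chemiluminescent measurement of peroxidase in the medium 12 h after reporter induction, following 5 days of dsRNA, given as a z-score per plate; higher means more secretion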
Scale: z-score: higher = more reporter secreted into medium
The deposit covers about 23,000 reagents; this is a random part of those with a known target gene and a result. 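Reduced-secretion tags in replicate 1 do not always agree with the z-scores; no criterion for assigning the tags was given.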 The numbers tell different reagents against one gene apart. A plus sign joins genes that one reagent is predicted to hit. Further read-outs or replicates are left out here. Not stated in the record: the amount of reagent.

The first 4 entries, ahead of the listing:
| z-score, replicate 1 | z-score, replicate 2 | z-score, replicate 3 | z-score, replicate 4 | target gene | reagent no. |
| --- | --- | --- | --- | --- | --- |
| 0.14 | 0.18 | – | – | lncRNA:CR43372 | 1 |
| 0.29 | 0.24 | – | – | CG7069 | 1 |
| 0.33 | 0.58 | – | – | bigmax | 1 |
| 0.43 | 0.29 | – | – | CG31251 | 1 |

Results, from the first entry:
| z-score, replicate 1 | z-score, replicate 2 | z-score, replicate 3 | z-score, replicate 4 | target gene | reagent no. |
| --- | --- | --- | --- | --- | --- |
| 0.14 | 0.18 | – | – | lncRNA:CR43372 | 1 |
| 0.29 | 0.24 | – | – | CG7069 | 1 |
| 0.33 | 0.58 | – | – | bigmax | 1 |
| 0.43 | 0.29 | – | – | CG31251 | 1 |
| 0.17 | 0.38 | – | – | Phf7 | 1 |
| 0.26 | 0.2 | – | – | CG10912 | 1 |
| 0.29 | 0.19 | – | – | Esyt2 | 1 |
| 0.15 | 0.08 | – | – | CG42568 + DnaJ-60 | 1 |
| 0.3 | 0.3 | – | – | CG42568 + DnaJ-60 | 2 |
| 0.16 | -0.57 | – | – | CG14511 | 1 |
| 0.48 | 0.39 | – | – | Mipp2 | 1 |
| 0.6 | 0.41 | – | – | TM9SF4 | 1 |
| 0.28 | 0.35 | – | – | RpL34a | 1 |
| 0.17 | 0.39 | – | – | CG3347 | 1 |
| 0.19 | 0.38 | – | – | CG2865 | 1 |
| -1.62 | 0.21 | – | – | CG2865 | 2 |
| 0.43 | 0.45 | – | – | CG6236 | 1 |
| 0.38 | 0.17 | – | – | COX4L | 1 |
| 0.79 | 0.57 | – | – | CG4483 | 1 |
| -0.37 | 0.11 | – | – | esg | 1 |
| -5.42 | -4.75 | – | – | MED7 | 1 |
| 0.26 | 0.39 | – | – | Cyp313a1 | 1 |
| 0.01 | 0.2 | – | – | CG12209 | 1 |
| 0.07 | -0.32 | – | – | Eip78C | 1 |
| 0.68 | 0.54 | – | – | bin3 | 1 |
| 0.44 | 0.73 | – | – | CG15534 | 1 |
| 0.35 | -0.31 | – | – | AIF | 1 |
| 0.24 | 0.24 | – | – | Spn53F | 1 |
| 0.28 | 0.36 | – | – | CG16723 | 1 |
| 0.28 | 0.55 | – | – | svp | 1 |
| -4.98 | -4.53 | – | – | svp | 2 |
| 0.35 | 0.32 | 0.52 | 0.28 | svp | 3 |
| 0.37 | 0.43 | – | – | CG11353 | 1 |
| 0.21 | -0.05 | – | – | Nepl3 | 1 |
| -1.58 | -1.12 | – | – | Dis3 | 1 |
| -0.81 | -1.13 | – | – | CAH16 | 1 |
| 0.3 | 0.52 | – | – | Art6 | 1 |
| 0.27 | 0.04 | – | – | CG1273 | 1 |
| 0.26 | 0.29 | – | – | CG6974 | 1 |
| 0.52 | 0.43 | – | – | CG6142 | 1 |
| 0.57 | 0.35 | – | – | Uro | 1 |
| 0.62 | 0.15 | – | – | Cyp6t1 | 1 |
| 0.36 | 0.25 | – | – | CG2003 | 1 |
| 0.07 | 0.19 | – | – | CG18304 | 1 |
| 0.22 | 0.1 | – | – | Idh3a | 1 |
| 0.13 | -0.03 | – | – | Apt1 | 1 |
| 0.03 | 0.25 | – | – | CG18744 | 1 |
| 0.73 | 0.64 | – | – | rtp | 1 |
| 0.84 | 0.51 | – | – | FLASH | 1 |
| 0.54 | 0.44 | – | – | Srr | 1 |
| 0.68 | -0.02 | – | – | CG32225 | 1 |
| -5.79 | -3.13 | – | – | TfIIEbeta | 1 |
| 0.18 | 0.38 | – | – | Pif1A + Pif1B | 1 |
| 0.29 | 0.57 | – | – | Pif1A + Pif1B | 2 |
| 0.39 | 0.54 | – | – | Pif1A + Pif1B | 3 |
| 0.53 | 0.31 | – | – | CG43052 | 1 |
| 0.18 | 0.35 | – | – | CG10226 | 1 |
| 0.39 | 0 | – | – | Cchl | 1 |
| 0.24 | 0.26 | – | – | He + NimB5 | 1 |
| 0.07 | 0.32 | – | – | Fmo-1 | 1 |
| 0.4 | 0.54 | – | – | Drep1 | 1 |
| -0.01 | -0.09 | – | – | CG2930 | 1 |
| 0.5 | 0.42 | – | – | CG6178 | 1 |
| 0.4 | 0.53 | – | – | hdm | 1 |
| 0.28 | -0.12 | – | – | Poxn | 1 |
| 0.27 | -0.05 | – | – | Poxn | 2 |
| 0.24 | 0.49 | – | – | fus | 1 |
| 0.62 | 0.38 | – | – | fus | 2 |
| 0.12 | 0.12 | – | – | Ir60a | 1 |
| 0.44 | 0.33 | – | – | CG15117 | 1 |
| 0.27 | 0.36 | – | – | Mul1 | 1 |
| 0.34 | 0.2 | – | – | by | 1 |
| 0.31 | 0.44 | – | – | bib | 1 |
| 0.31 | 0.29 | – | – | PIG-Q | 1 |
| 0.2 | 0.09 | – | – | CG14689 | 1 |
| 0.4 | 0.42 | – | – | CG7781 | 1 |
| -0.73 | -0.87 | – | – | Tig | 1 |
| 0.18 | 0.37 | – | – | Sox102F | 1 |
| 0.39 | 0.36 | – | – | Trm1 | 1 |
| 0.08 | 0.4 | – | – | CG6398 | 1 |
| 0.37 | 0.22 | – | – | CG9389 | 1 |
| 0.66 | 0.67 | – | – | CG5399 | 1 |
| 0.27 | 0.03 | – | – | mIF3 | 1 |
| 0.29 | 0.3 | – | – | Cyp6a17 | 1 |
| 0.39 | 0.27 | – | – | LSm3 | 1 |
| 0.26 | 0.19 | – | – | CG5235 | 1 |
| 0.2 | -0.2 | – | – | Or22b | 1 |
| 0.05 | 0.5 | – | – | CG3746 | 1 |
| 0.27 | 0.17 | – | – | Paics | 1 |
| -1.16 | -0.57 | – | – | Caper | 1 |
| 0.45 | 0.24 | – | – | CG12084 | 1 |
| 0.2 | 0.37 | – | – | CG3223 | 1 |
| 0.49 | 0.13 | – | – | toe | 1 |
| 0.16 | 0 | – | – | toe | 2 |
| 0.38 | 0.36 | – | – | CG2701 | 1 |
| 0.11 | 0.46 | – | – | Spt-I | 1 |
| 0.25 | -7.29 | – | – | Pcmt | 1 |
| 0.28 | 0.26 | – | – | CG8840 | 1 |
| 0.65 | 0.36 | – | – | CG33253 | 1 |
| 0.02 | 0.43 | -0.42 | 0.4 | CG33253 | 2 |
| -0.19 | -0.31 | – | – | Ndc1 | 1 |
| 0.39 | 0.41 | – | – | AP-2alpha | 1 |
| 0.25 | -0.32 | – | – | Prx2 | 1 |
| 0.41 | 0.24 | – | – | Adh + Adhr | 1 |
| 0.27 | 0.36 | – | – | Adh + Adhr | 2 |
